This data set has as its target CaWRKY58-6xHis (Capsicum annuum) (UniProt Q5DJV3). Description: EMSA. Conditions: Cy5 probes, Odyssey CLX; recombinant protein; protein details: 6xHis (pDEST17, text says N-terminal 6xHis); label: Cy5; probe letters rebuilt from the primers and the genome. For orientation: In EMSA bound probe runs differently from free probe, usually more slowly.

From paper PMC7840522, “Ca14-3-3 Interacts With CaWRKY58 to Positively Modulate Pepper Response to Low-Phosphorus Starvation” come the findings set out here.

Construct, isoform or probe ends are uncertain for at least one entry.

On to “CATTTGAGGGTTTAGCATGTAACTATCATGCAGCTTCTGCATTTGCTGAATTTTCACCATTGATAAAACTATGCTTGACCATCTAAATTTTCCTATTATAAGGCAAGAAATTATCTTGTATACTCCTGTTCAGTTGTAGCATGCTTGTTG (double strand) [CaPHR1-P (CaPHR1-Pcy5)]”, for which the binding result is on record as “binds”.
